According to article PMC9756296:
These are yes or no findings as the source states them, for the method shown. Binding seen in cells or lysates may run through a third protein. Some entries that bind do so weakly or less than the wild type.

The chains behind the UniProt entries cited, without tags or fusion partners.
UniProt Q03135: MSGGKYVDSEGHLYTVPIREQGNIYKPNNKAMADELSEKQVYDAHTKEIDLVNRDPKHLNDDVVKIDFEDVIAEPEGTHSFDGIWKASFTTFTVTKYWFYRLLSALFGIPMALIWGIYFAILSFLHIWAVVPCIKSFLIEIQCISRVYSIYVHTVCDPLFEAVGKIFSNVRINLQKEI
UniProt P09382: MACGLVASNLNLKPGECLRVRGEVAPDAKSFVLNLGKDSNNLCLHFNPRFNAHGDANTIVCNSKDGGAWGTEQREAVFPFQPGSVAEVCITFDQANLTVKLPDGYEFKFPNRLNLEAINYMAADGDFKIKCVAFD
UniProt P35222: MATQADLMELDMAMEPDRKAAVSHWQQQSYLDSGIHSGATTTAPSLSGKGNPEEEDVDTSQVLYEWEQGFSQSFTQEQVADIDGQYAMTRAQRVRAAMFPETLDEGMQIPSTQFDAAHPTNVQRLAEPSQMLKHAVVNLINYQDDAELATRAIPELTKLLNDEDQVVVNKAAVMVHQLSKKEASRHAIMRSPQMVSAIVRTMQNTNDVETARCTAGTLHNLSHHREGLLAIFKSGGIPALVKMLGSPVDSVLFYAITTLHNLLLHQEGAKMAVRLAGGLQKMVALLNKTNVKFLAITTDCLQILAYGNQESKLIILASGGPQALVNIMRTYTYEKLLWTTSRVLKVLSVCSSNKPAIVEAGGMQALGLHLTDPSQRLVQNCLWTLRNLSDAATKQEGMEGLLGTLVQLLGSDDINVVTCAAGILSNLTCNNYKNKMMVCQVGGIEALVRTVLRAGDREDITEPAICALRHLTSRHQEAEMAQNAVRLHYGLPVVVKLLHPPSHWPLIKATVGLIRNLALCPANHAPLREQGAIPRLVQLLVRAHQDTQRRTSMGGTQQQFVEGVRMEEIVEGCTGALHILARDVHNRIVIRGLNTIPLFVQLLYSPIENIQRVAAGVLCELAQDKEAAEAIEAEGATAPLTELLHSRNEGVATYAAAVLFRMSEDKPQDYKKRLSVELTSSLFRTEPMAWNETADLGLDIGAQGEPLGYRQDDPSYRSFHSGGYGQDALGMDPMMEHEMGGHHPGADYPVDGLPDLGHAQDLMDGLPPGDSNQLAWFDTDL

Target: caveolin-1 (human (endogenous in PMSCs)) (UniProt Q03135)
Test: co-IP; caveolin-1 immunoprecipitated from PMSC lipid raft isolates with 1 μg anti-caveolin-1 antibody (#7C8), 16 h at 4 °C; protein A/G-Sepharose beads 1 h at 4 °C; washed four times with PBS; Western blot for β-catenin, galectin-1 and caveolin-1; nonspecific mouse IgG as negative control

| binding | Substance |
| --- | --- |
| binds | galectin-1 (from UniProt P09382 1-135) |
| binds | β-catenin (from UniProt P35222 1-781) |
